Source: the supplement of paper PMC10735217
Some of the results follow. Repeats in this data set agree poorly, so a single value says little.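 Human kidney-derived cells stably carry a construct in which eight TEAD-binding elements drive luciferase, measured by luminescence in a drug-repurposing library screen. A hit is any compound whose signal exceeds the plate mean by more than five robust Z scores.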

Tested on: HEK293A TEAD-LUC reporter
Experiment: TEAD-luciferase reporter activity (YAP activation), robust Z score vs plate; higher = stronger YAP/TEAD activation
Conditions: 24 h

Structure (SMILES)	TEAD-luciferase reporter activity (compound concentration: 200 nM)	TEAD-luciferase reporter activity (compound concentration: 2 uM)	TEAD-luciferase reporter activity (compound concentration: 10 uM)
O=C(c1ccc(F)cc1)C1CCN(CCn2c(=O)nc3n(c2=O)CCCC3)CC1	inactive: -1.16	inactive: -0.22	inactive: 0.00364
CC[C@H]1OC(=O)C[C@@H](O)[C@H](C)[C@@H](O[C@@H]2O[C@H](C)[C@@H](O[C@H]3C[C@@](C)(O)[C@@H](O)[C@H](C)O3)[C@H](N(C)C)[C@H]2O)[C@@H](CC=O)C[C@@H](C)C(=O)/C=C/C(C)=C/[C@@H]1CO[C@@H]1O[C@H](C)[C@@H](O)[C@@H](OC)[C@H]1OC [Tylosin]	inactive: 0.0947	inactive: -1.03	inactive: -1.37
Cc1c(N)cccc1Cn1ccc(OCCc2cccs2)cc1=O	inactive: 1.16	inactive: 0.488	inactive: 0.0316
CCCC1O[C@@H]2C[C@H]3[C@@H]4CCC5=CC(=O)C=C[C@]5(C)[C@H]4[C@@H](O)C[C@]3(C)[C@]2(C(=O)COC(=O)c2ccc(CO[N+](=O)[O-])cc2)O1 (stereo partly drawn) [NO-budesonide]	inactive: 0.475	inactive: 0.825	inactive: -0.113
CC(C)(O/N=C(\C(=O)N[C@@H]1C(=O)N2C(C(=O)[O-])=C(C[n+]3ccccc3)CS[C@H]12)c1csc(N)n1)C(=O)O [Ceftazidime hydrate]	inactive: 0.728	–	inactive: -0.723
Cc1cc(/C=C/c2ccc3cc(N(C)C)ccc3[n+]2C)c(C)n1-c1ccccc1 [Pyrvinium pamoate]	inactive: -0.673	inactive: -1.08	inactive: 2.01
CC(C)(CCCCOCCCCC(C)(C)C(=O)O)C(=O)O	inactive: -0.574	inactive: -0.604	inactive: 2.43
CCC1=C(C)CN(C(=O)NCCc2ccc(S(=O)(=O)NC(=O)N[C@H]3CC[C@H](C)CC3)cc2)C1=O [glimepiride]	–	inactive: -1.53	–
CCC1=C(C)CN(C(=O)NCCc2ccc(S(=O)(=O)NC(=O)N[C@H]3CC[C@H](C)CC3)cc2)C1=O	inactive: -2.17	–	inactive: -0.57
CCCC(=O)O[C@]1(C(=O)CO)CC[C@H]2[C@@H]3CCC4=CC(=O)CC[C@]4(C)[C@H]3[C@@H](O)C[C@@]21C [hydrocortisone-17-butyrate]	inactive: -1.83	inactive: 1.37	inactive: 1.48
N=C(N)NC(=N)NCCc1ccccc1	inactive: 1.45	inactive: 2.24	inactive: 1.18
CCCNC(=O)NS(=O)(=O)c1ccc(Cl)cc1 [Chlorpropamide]	–	inactive: -1.87	–
CCCNC(=O)NS(=O)(=O)c1ccc(Cl)cc1	inactive: -0.131	–	inactive: 0.0151
c1cc(OCCN2CCCCC2)cc(-c2n[nH]c3ccc(-c4ncn[nH]4)cc23)c1	inactive: 0.749	inactive: 2.09	inactive: 3.18
NS(=O)(=O)c1cc(C2(O)NC(=O)c3ccccc32)ccc1Cl (stereo not drawn) [Chlorthalidone]	inactive: 0.154	–	inactive: 1.79
NS(=O)(=O)c1cc(C2(O)NC(=O)c3ccccc32)ccc1Cl (stereo not drawn) [Chlortalidone]	–	inactive: -1.31	–
CCCC(=O)O[C@]1(C(=O)CCl)[C@@H](C)C[C@H]2[C@@H]3CCC4=CC(=O)C=C[C@]4(C)[C@@]3(F)C(=O)C[C@@]21C [clobetasone butyrate]	inactive: -0.896	inactive: 1.09	inactive: -0.179

Taken from above.
TEAD-luciferase reporter activity (compound concentration: 10 uM) with N=C(N)NC(=N)NCCc1ccccc1 reads inactive: 1.18
TEAD-luciferase reporter activity (compound concentration: 10 uM) with Cc1cc(/C=C/c2ccc3cc(N(C)C)ccc3[n+]2C)c(C)n1-c1ccccc1 [Pyrvinium pamoate] reads inactive: 2.01

(further entries)

Structure (SMILES)	TEAD-luciferase reporter activity (compound concentration: 200 nM)	TEAD-luciferase reporter activity (compound concentration: 2 uM)	TEAD-luciferase reporter activity (compound concentration: 10 uM)
Cc1nc2ccccc2n1C1CC2CCC(C1)N2CCC1(c2cccc(F)c2)CCN(C(=O)c2cc(S(=O)(=O)NC(C)(C)C)c(F)cc2Cl)CC1 (stereo not drawn)	inactive: 0.653	inactive: -0.911	inactive: 2.65
CCCCN1CC[C@H](c2ccc(N(C)C)cc2)[C@@H](COc2ccc(C(F)(F)F)cc2)C1	inactive: 0.00913	inactive: -1.84	inactive: -2.6
COc1ccc2cc([C@H](C)C(=O)OCCS(C)(=O)=O)ccc2c1 [naproxen etemesil]	inactive: 0.785	inactive: -1.18	inactive: 1.87
O=C(CCCCC(=O)Nc1c(I)cc(I)c(C(=O)O)c1I)Nc1c(I)cc(I)c(C(=O)O)c1I [Iodipamide]	inactive: -0.985	inactive: 0.0648	inactive: -0.38
COc1ccc(-c2sc(NC(=O)c3cc(OC)c(OC)c(OC)c3)nc2-c2ccccc2)cc1	inactive: -1.1	inactive: -0.595	inactive: -1.14
O=C1NC(O)CCN1[C@@H]1O[C@H](CO)[C@@H](O)[C@H]1O (stereo partly drawn) [Tetrahydrouridine]	inactive: -0.786	inactive: -2.31	inactive: -0.469
N=C(NCCCc1cnc[nH]1)NCCC(c1ccc(F)cc1)c1ccccn1 (stereo not drawn)	inactive: -1.69	inactive: 2.3	inactive: -0.628
Oc1c(-n2ccnn2)cnn1-c1cc(N2CCOCC2)ncn1 [Molidustat sodium]	–	inactive: -1.52	–
Oc1c(-n2ccnn2)cnn1-c1cc(N2CCOCC2)ncn1 [molidustat]	inactive: 0.147	–	inactive: -1.35
N#Cc1cc(-c2ccccc2)nnc1NCCN1CCOCC1	inactive: -0.639	inactive: -1.28	inactive: -0.807
CC(=O)N[C@@H](Cc1ccc(OP(=O)(O)O)cc1)C(=O)N[C@H](C)c1ccc(OCC2CCCCC2)c(C(N)=O)c1	inactive: -0.936	inactive: 0.489	inactive: 1.72
COc1cc(C(=O)c2c(C)oc3c(O)c(OC)ccc23)cc(OC)c1OC	inactive: -1.34	inactive: 1.51	inactive: 0.798
Cc1ccc(Nc2c(F)cccc2Cl)c(CC(=O)O)c1 [lumiracoxib]	–	inactive: 4.72	–
Cc1ccc(Nc2c(F)cccc2Cl)c(CC(=O)O)c1	inactive: -2.61	–	inactive: -1.03
Nc1cc2c3ccccc3ccc2c2ccccc12 [6-Aminochrysene]	inactive: -2.99	inactive: -3.79	inactive: 1.01
Cc1cc2c(cc1C(F)(F)F)N(C(=O)Nc1ccc(Oc3cccnc3C)nc1)CC2	inactive: -2.15	inactive: -2.4	inactive: -0.928
